Test results taken from patent US20250303359A1, “COMPOUNDS AND METHODS FOR SAFE MITIGATION OF OCEAN ACIDIFICATION AND CAPTURE OF ATMOSPHERIC CARBON DIOXIDE” (Negative Emissions Materials, Inc., priority 2022, published 2025).

[Mg+2].[OH-].[OH-] [Mg(OH)2, magnesium hydroxide]
CO2 consumption (or alkalinity increase) per mol of Mg(OH)2 added (1-6 days, 1-3 L, deep local seawater, 400 ppm pCO2, 22 °C): approximately 1.5 mol
time by which full CO2 uptake effect occurred (concentrations within ecosystem safety limits): ≤ 6 days
